Measured values taken from the supplement of paper PMC10849652.
This is one part of the list.

By UniProt entry, the sequences of proteins in these tests, tags left out. Where a name states a change or a piece, a line headed by the entry shows the natural chain unless it says otherwise.
UniProt Q9Y3Q8: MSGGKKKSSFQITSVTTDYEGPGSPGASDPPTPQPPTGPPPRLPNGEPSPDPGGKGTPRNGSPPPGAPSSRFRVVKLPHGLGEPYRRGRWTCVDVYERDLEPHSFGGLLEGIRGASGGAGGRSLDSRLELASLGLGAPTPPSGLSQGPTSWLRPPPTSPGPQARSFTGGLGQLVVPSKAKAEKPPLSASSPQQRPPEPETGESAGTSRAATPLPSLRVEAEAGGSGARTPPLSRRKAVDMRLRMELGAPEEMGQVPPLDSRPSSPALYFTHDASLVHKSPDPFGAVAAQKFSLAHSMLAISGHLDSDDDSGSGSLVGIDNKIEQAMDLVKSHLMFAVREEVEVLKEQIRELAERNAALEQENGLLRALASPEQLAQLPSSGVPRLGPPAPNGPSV
UniProt Q9H3S4: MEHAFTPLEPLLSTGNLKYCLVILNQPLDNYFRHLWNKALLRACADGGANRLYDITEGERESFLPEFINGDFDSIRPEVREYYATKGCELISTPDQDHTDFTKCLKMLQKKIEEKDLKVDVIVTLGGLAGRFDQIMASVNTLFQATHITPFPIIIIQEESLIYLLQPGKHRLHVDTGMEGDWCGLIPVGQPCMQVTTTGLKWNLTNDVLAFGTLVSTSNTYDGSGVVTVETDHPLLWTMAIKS
UniProt Q96QT4: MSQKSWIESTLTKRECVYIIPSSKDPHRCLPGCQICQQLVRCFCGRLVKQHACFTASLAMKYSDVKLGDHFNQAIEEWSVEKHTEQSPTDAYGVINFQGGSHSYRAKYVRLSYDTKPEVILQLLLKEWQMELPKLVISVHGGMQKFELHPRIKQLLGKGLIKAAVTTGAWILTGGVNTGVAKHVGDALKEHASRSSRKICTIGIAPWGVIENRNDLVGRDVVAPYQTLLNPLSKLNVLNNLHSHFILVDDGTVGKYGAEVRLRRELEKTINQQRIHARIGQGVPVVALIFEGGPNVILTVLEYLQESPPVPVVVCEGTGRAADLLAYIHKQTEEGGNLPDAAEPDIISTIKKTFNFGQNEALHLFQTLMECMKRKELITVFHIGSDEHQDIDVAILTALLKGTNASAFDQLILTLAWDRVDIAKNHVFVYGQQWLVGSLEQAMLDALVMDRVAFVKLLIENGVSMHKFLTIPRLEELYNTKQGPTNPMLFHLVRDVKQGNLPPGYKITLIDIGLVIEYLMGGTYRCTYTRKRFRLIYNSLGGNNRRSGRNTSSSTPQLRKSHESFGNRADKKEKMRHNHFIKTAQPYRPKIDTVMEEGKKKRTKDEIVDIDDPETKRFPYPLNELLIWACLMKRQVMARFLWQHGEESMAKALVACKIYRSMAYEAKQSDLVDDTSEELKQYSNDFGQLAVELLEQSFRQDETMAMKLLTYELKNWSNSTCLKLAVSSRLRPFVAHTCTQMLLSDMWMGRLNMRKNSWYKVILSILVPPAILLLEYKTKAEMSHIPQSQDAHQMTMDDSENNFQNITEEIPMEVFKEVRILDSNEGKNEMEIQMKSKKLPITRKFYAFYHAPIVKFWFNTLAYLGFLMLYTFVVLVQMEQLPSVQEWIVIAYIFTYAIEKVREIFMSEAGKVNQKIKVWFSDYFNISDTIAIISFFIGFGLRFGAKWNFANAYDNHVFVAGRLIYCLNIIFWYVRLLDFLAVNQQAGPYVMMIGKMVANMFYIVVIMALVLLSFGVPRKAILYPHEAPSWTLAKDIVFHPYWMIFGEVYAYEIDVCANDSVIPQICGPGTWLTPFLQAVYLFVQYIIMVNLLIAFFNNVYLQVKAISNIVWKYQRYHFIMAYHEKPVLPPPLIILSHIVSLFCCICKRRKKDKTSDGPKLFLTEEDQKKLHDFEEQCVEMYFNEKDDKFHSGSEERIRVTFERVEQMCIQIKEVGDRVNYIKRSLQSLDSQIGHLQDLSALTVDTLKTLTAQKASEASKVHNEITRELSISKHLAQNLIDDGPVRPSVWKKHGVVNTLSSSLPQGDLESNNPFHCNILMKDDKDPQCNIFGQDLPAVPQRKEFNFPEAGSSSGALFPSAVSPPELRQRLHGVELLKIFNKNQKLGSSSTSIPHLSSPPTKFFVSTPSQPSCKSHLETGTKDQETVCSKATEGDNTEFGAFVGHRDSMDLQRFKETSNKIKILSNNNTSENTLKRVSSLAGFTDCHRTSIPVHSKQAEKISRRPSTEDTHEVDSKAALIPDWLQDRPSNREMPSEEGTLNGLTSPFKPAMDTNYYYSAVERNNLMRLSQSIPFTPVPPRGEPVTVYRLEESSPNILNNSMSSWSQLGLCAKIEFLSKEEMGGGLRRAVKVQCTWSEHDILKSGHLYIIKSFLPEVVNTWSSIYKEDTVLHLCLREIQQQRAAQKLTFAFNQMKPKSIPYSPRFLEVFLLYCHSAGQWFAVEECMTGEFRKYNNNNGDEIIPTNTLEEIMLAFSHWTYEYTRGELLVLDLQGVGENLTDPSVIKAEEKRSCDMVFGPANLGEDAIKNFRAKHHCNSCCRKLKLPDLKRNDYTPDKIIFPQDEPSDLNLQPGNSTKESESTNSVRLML
UniProt Q629K1: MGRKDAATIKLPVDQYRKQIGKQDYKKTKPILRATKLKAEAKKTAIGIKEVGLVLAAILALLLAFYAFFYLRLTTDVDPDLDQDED
UniProt Q15025: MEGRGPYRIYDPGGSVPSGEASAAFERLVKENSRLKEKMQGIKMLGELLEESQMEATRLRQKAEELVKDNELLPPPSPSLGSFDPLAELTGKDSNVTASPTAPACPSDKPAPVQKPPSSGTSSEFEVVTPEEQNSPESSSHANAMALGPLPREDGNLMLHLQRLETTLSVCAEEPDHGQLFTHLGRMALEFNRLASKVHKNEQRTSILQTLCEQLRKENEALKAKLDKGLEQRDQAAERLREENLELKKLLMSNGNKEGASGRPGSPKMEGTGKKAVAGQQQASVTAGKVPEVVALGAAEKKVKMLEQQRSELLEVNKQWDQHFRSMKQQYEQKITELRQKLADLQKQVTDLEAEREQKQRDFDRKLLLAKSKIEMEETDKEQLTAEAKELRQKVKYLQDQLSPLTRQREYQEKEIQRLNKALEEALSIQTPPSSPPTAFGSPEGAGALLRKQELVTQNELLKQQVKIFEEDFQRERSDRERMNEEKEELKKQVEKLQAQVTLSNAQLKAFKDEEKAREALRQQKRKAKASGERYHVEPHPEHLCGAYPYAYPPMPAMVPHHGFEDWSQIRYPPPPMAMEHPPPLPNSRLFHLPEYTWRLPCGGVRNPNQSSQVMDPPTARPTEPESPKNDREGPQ
UniProt Q9UKE5: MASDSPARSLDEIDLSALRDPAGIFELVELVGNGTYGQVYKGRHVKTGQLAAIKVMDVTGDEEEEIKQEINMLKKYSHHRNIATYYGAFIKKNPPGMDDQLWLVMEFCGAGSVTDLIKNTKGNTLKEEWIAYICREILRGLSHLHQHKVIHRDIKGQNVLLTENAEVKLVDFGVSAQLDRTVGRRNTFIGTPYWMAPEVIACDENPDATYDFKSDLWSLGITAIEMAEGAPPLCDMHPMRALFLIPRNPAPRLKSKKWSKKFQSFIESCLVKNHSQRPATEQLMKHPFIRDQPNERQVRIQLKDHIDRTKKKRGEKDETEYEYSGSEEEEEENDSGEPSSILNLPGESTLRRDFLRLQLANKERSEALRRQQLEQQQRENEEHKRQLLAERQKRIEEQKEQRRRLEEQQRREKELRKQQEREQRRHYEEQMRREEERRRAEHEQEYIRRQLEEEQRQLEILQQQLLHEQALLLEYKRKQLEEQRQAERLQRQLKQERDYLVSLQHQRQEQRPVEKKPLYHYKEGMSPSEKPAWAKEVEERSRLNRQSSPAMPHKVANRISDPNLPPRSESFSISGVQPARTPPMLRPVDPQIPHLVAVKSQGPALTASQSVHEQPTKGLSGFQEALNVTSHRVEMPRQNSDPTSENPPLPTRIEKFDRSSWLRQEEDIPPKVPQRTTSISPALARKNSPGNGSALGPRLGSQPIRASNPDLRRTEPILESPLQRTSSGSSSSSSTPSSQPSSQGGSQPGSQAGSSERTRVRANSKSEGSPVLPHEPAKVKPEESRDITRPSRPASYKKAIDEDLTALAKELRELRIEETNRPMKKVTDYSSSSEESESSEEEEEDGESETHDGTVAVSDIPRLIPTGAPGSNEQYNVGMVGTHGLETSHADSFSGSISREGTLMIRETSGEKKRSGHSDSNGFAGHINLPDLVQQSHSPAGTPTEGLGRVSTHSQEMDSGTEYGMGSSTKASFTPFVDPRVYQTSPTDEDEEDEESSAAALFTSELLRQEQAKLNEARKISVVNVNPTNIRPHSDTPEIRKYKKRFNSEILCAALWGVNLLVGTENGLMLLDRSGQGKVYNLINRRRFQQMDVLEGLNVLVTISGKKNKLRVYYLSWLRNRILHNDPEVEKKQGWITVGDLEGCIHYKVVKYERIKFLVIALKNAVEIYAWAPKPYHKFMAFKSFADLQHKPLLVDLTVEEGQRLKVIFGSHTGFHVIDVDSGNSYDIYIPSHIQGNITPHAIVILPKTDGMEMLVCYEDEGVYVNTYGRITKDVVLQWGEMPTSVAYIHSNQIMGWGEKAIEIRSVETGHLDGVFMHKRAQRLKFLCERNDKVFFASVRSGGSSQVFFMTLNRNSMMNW
UniProt Q9H3H1: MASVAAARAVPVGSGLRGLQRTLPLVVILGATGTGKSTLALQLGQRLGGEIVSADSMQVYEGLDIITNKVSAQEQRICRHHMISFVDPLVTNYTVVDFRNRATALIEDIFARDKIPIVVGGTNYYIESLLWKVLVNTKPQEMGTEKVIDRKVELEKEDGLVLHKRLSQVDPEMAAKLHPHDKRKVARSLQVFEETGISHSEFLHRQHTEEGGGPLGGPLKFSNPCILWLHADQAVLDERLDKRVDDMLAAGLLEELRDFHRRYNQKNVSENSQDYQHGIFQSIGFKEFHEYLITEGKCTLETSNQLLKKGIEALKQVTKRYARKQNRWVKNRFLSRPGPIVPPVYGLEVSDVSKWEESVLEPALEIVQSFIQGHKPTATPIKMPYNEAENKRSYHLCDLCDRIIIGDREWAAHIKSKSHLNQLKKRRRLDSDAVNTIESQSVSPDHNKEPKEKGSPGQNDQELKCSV
UniProt Q96GJ1: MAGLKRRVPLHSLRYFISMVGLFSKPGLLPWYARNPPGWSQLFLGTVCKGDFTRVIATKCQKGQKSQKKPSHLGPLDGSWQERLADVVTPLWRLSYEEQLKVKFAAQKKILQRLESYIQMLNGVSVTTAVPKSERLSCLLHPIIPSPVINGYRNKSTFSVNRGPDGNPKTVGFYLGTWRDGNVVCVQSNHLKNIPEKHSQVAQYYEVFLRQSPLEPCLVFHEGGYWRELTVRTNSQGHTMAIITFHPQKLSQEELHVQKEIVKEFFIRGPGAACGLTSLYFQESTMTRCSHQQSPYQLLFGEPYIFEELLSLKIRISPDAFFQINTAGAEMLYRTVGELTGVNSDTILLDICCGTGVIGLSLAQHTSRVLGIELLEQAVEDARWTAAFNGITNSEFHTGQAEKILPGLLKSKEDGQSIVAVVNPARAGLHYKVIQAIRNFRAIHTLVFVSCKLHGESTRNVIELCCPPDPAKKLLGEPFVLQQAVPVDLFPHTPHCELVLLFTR
UniProt O95900: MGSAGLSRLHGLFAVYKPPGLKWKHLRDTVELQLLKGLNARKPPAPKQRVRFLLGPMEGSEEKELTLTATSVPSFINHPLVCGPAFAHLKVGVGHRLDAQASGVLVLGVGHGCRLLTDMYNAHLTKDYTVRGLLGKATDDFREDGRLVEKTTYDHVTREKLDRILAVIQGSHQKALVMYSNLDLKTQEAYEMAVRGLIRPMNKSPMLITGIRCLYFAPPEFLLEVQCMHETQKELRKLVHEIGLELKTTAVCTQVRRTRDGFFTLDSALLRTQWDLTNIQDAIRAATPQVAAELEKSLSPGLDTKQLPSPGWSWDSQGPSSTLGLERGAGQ
UniProt O43399: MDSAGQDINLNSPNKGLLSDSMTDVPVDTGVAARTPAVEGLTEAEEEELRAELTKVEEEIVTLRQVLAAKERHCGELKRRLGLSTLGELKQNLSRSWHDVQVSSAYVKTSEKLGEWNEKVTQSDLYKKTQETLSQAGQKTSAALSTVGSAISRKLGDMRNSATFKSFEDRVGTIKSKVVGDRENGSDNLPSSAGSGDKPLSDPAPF
UniProt P19474, whole entry, looked up: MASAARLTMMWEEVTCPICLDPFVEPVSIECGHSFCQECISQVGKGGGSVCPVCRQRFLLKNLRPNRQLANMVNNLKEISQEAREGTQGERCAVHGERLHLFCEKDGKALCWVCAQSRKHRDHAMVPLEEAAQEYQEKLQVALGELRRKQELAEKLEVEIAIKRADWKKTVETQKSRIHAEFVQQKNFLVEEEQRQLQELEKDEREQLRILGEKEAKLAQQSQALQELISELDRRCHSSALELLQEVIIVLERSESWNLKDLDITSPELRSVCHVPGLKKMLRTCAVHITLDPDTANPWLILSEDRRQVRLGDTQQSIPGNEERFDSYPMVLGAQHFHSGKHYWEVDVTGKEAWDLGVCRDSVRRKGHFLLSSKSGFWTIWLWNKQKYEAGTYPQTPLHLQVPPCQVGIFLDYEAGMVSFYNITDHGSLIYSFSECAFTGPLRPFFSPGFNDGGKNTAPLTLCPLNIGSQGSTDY

Tests used:
Test in all cases: log2 fold change, soluble protein after heating vs DMSO (PISA); higher = thermal stabilisation; K562 cells, 10 uM, 30 min; active = over 0.2 and 3.5 SD of the protein, either way, in both replicates (recomputed)
[1] = compound: NC(=O)Nc1cc(-c2cccc(F)c2)sc1C(=O)N[C@H]1CCCNC1
In short: (§1)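 K562 cells at 2×10^6 cells/mL were treated for 30 min with 10 μM compound, and aliquots were heated for 3 min over 48°C-58°C before pooling. Extraction used PBS with 0.5% NP-40 at 4°C, and soluble protein was the supernatant after 21,000xg for 90 min, measured by TMTpro 16plex LC-MS/MS with channel sums equalised. Thermal stability values, relative to control samples and from duplicates, are log2 fold changes.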

[2] = compound: NC(=O)c1cnc(N[C@@H]2CCCC[C@@H]2N)nc1Nc1cccc(-n2nccn2)c1
In short: as §1

[3] = compound: NCC(=O)Nc1ccc(-n2nc(C(F)(F)F)cc2-c2ccc3c(ccc4ccccc43)c2)cc1
In short: as §1

[4] = compound: Nc1ccccc1NC(=O)c1ccc(CNC(=O)OCc2cccnc2)cc1 [entinostat]
In short: as §1

[5] = compound: O=C1NC(=O)C(c2cnc3ccccn23)=C1c1cn2c3c(cc(F)cc13)CN(C(=O)N1CCCCC1)CC2
In short: as §1

[6] = compound: NC1(c2ccc(-c3nc4ccn5c(=O)[nH]nc5c4cc3-c3ccccc3)cc2)CCC1
In short: as §1

[7] = compound: O=C(CCCCCCC(=O)Nc1ccccc1)NO [vorinostat]
In short: as §1

[8] = compound: O=C(CCCCCCNC(=O)c1cnc(N(c2ccccc2)c2ccccc2Cl)nc1)NO [citarinostat]
In short: as §1

[9] = compound: O=C(O)c1ccc2c(c1)nc(Nc1cccc(Cl)c1)c1ccncc12 [silmitasertib]
In short: as §1

[10] = compound: c1cc(OCCN2CCCCC2)cc(-c2n[nH]c3ccc(-c4nnc[nH]4)cc23)c1
In short: as §1

[11] = compound: c1cn2cc(-c3ccc4cn[nH]c4c3)nc(Nc3ccc(N4CCOCC4)cc3)c2n1 [entospletinib]
In short: as §1

Measured: log2 fold change

TRIM5 (UniProt Q9C035)
inactive: [1] -0.219 | [2] -0.085 | [3] -0.006 | [4] 0.137 | [5] 0.024

TOP3B (UniProt O95985)
inactive: [1] 0.066 | [2] 0.004 | [6] 0.033 | [3] 0.062 | [4] -0.008 | [7] 0.053 | [8] -0.077 | [9] 0.015 | [5] 0.169 | [10] 0.073 | [11] 0.068

TRIP13 (UniProt Q15645)
inactive: [1] 0.03 | [2] -0.016 | [6] -0.142 | [3] 0.003 | [4] 0.012 | [7] 0.069 | [8] 0.064 | [9] -0.028 | [5] -0.008 | [10] -0.049 | [11] -0.054

TRAPPC10 (UniProt P48553)
inactive: [1] -0.128 | [2] -0.094 | [6] -0.062 | [3] 0.02 | [4] -0.032 | [7] 0.084 | [8] -0.028 | [9] 0.018 | [5] -0.082 | [10] -0.04 | [11] 0.077

TRA2B (UniProt P62995)
inactive: [1] 0.037 | [2] 0.268 | [6] 0.494 | [3] 0.04 | [4] -0.124 | [7] -0.047 | [8] -0.029 | [9] 0.017 | [5] 0.268 | [10] -0.181 | [11] 0.171

TSC2 (UniProt P49815)
active: [10] -0.594
inactive: [1] -0.038 | [2] -0.074 | [6] 0.214 | [4] -0.061 | [7] 0.125 | [8] 0.273 | [9] 0.107 | [5] 0.105

TRAPPC5 (UniProt Q8IUR0)
inactive: [1] 0.027 | [2] -0.071 | [6] -0.08 | [3] -0.025 | [4] -0.004 | [7] 0.062 | [8] 0.032 | [9] 0.027 | [5] 0.059 | [10] -0.097 | [11] -0.037

TSC22D4 (UniProt Q9Y3Q8)
inactive: [1] 0.056 | [2] -0.021 | [6] -0.015 | [3] 0.011 | [4] 0.011 | [7] 0.031 | [8] 0.047 | [9] 0.013 | [5] -0.067 | [10] -0.007 | [11] -0.012

TPK1 (UniProt Q9H3S4)
inactive: [1] -0.009 | [6] 0.19 | [3] 0.067 | [4] 0.016 | [7] 0.015 | [9] 0.091 | [5] -0.017

TRIM41 (UniProt Q8WV44)
inactive: [3] 0.143

TRAPPC2 isoform 3 (UniProt P0DI81)
inactive: [2] -0.253 | [6] -0.016 | [3] -0.123 | [7] -0.017 | [9] 0.032

TRPM7 (UniProt Q96QT4)
inactive: [2] -0.145 | [6] -0.015 | [3] 0.051 | [7] 0.073 | [8] 0.061 | [9] 0.073 | [5] 0.095 | [10] -0.187 | [11] 0.07

TRPM4 (UniProt Q8TD43)
inactive: [1] -0.081 | [4] 0.014 | [5] 0.079

TOM1 (UniProt O60784)
inactive: [1] 0.044 | [6] -0.176 | [4] 0.062 | [7] 0.048 | [9] 0.017 | [5] -0.077

TRIQK (UniProt Q629K1)
inactive: [1] 0.013 | [6] -0.044 | [4] -0.083 | [9] 0 | [5] -0.235

TRIP12 isoform 3 (UniProt Q14669)
inactive: [6] 0.022 | [3] -0.14 | [7] 0.158 | [8] -0.076 | [9] 0.044 | [5] 0.076 | [10] 0.077 | [11] -0.059

TSC1 (UniProt Q92574)
inactive: [2] -0.04 | [3] -0.12 | [8] 0.212 | [10] 0.039 | [11] -0.058

TRIM27 (UniProt P14373)
inactive: [2] -0.287 | [7] 0.066

TRADD (UniProt Q15628)
inactive: [2] -0.073 | [6] -0.094 | [3] -0.049 | [9] -0.034 | [5] 0.025

TNIP1 (UniProt Q15025)
inactive: [1] -0.006 | [6] 0.251 | [4] 0.022 | [8] 0.067 | [9] -0.343 | [5] 0.052 | [10] 0.201 | [11] -0.072

TRAF3 (UniProt Q13114)
inactive: [3] 0.026

TRAF3IP1 (UniProt Q8TDR0)
inactive: [2] -0.07 | [3] -0.046

TPRG1L (UniProt Q5T0D9)
inactive: [1] 0.087 | [6] -0.065 | [4] 0.026 | [8] 0.191 | [9] 0.141 | [5] 0 | [10] 0.069 | [11] 0.031

TNIK isoform 3 (UniProt Q9UKE5)
inactive: [2] 0.006 | [6] 0.058 | [3] -0.006 | [7] 0.055 | [8] 0.029 | [9] -0.091 | [10] -0.03 | [11] -0.018

TNRC6A (UniProt Q8NDV7)
inactive: [6] 0.137 | [9] -0.007

TRIT1 (UniProt Q9H3H1)
inactive: [8] -0.214 | [10] 0.097 | [11] 0.237

TNKS (UniProt O95271)
inactive: [2] -0.205

TRMT5 (UniProt Q32P41)
inactive: [2] -0.13 | [3] -0.001 | [7] 0.019 | [8] 0.106 | [5] 0.03 | [10] -0.195 | [11] -0.113

TRMT2B (UniProt Q96GJ1)
inactive: [2] -0.282 | [6] -0.146 | [3] 0.007 | [7] 0.01 | [8] 0.068 | [9] 0.084 | [10] -0.05 | [11] 0.123

Retrieved one by one from above, 2 records:
TRAPPC2 isoform 3 (UniProt P0DI81)
inactive: [2] -0.253 | [6] -0.016 | [3] -0.123 | [7] -0.017 | [9] 0.032

TNIK isoform 3 (UniProt Q9UKE5)
inactive: [2] 0.006 | [6] 0.058 | [3] -0.006 | [7] 0.055 | [8] 0.029 | [9] -0.091 | [10] -0.03 | [11] -0.018

Further records follow:

TRUB2 (UniProt O95900)
inactive: [1] -0.255 | [4] -0.103 | [7] 0.053 | [5] -0.282

TRAPPC6A isoform 2 (UniProt O75865)
inactive: [6] -0.181 | [8] 0.041 | [9] -0.165 | [10] -0.03 | [11] 0.06

TREML2 (UniProt Q5T2D2)
inactive: [1] -0.238 | [6] -0.099 | [4] -0.168 | [9] -0.034

TROAP (UniProt Q12815)
inactive: [7] 0.05 | [5] 0.021

TRIM33 isoform 2 (UniProt Q9UPN9)
inactive: [1] -0.046 | [6] -0.048 | [4] 0.018 | [9] -0.149 | [5] 0.013

TPPP3 (UniProt Q9BW30)
inactive: [1] 0.094 | [4] -0.144 | [5] -0.208

TPD52L2 isoform 3 (UniProt O43399)
inactive: [2] -0.146 | [6] 0.273 | [3] 0.009 | [7] 0.077 | [9] -0.281 | [5] -0.097

TNXB isoform 4 (UniProt P22105)
inactive: [6] -0.001 | [8] -0.056 | [9] 0.12 | [10] -0.112 | [11] 0.075

TRIM21 (UniProt P19474)
inactive: [2] -0.096 | [6] -0.316 | [9] -0.026

TRIM65 (UniProt Q6PJ69)
inactive: [3] 0.032 | [8] 0.024 | [10] -0.068 | [11] -0.141

TOR1AIP2 (UniProt Q9H496)
inactive: [6] 0.048 | [8] 0.079 | [9] 0.02 | [5] -0.319 | [10] -0.067 | [11] -0.134

TRIM29 (UniProt Q14134)
inactive: [6] -0.181 | [8] -0.113 | [9] 0.09 | [10] -0.031 | [11] 0.07
